Test results taken from paper PMC8500422.
No constants are given. Whether binding was seen depends on the method and setting. Binding seen in cells or lysates may run through a third protein. Some entries that bind do so weakly or less than the wild type.

Chains of the proteins cited; added tags and fusions are not shown. Lines headed by an entry give the natural chain unless they say otherwise; changes in a name come on top. A line that says so, or that is headed by a name, gives the form on record, which may keep a tag or linker. Residues count along the entry.
UniProt Q8IZL9: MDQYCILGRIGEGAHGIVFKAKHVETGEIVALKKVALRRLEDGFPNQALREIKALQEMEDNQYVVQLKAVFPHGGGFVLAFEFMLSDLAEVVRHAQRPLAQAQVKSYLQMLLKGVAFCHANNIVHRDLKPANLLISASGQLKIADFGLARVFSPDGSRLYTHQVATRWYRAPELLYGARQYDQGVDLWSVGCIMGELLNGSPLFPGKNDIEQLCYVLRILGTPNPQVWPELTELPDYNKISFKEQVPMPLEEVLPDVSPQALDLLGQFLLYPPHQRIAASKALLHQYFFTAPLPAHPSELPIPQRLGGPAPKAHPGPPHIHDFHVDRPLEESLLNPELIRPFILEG
EGFP-fused CCRK(1–330): residues 1-330 of Q8IZL9
EGFP-fused CCRK(1–289): residues 1-289 of Q8IZL9
EGFP-fused CCRK(290–346): residues 290-346 of Q8IZL9

What was measured:
[1] = target: EGFP-fused CCRK(WT) (human) (UniProt Q8IZL9); test: co-IP; the beads of the VIP assay (EGFP-fused protein precipitated with GST-tagged anti-GFP Nb from HEK293T lysates) subjected to SDS-PAGE and immunoblotting with anti-mChe or anti-GFP antibody
[2] = target: EGFP-fused CCRK(K33R) (human) (UniProt Q8IZL9); test: as above
[3] = target: EGFP-fused CCRK(290–346) (human) (UniProt Q8IZL9); test: as above
[4] = target: EGFP-fused CCRK(1–289) (human) (UniProt Q8IZL9); test: as above
[5] = target: EGFP-fused CCRK(1–330) (human) (UniProt Q8IZL9); test: as above
[6] = target: EGFP-fused CCRK(WT) (human) (UniProt Q8IZL9); test: co-IP; visible immunoprecipitation (VIP) assay: lysates of HEK293T cells coexpressing EGFP-fused and mChe-fused proteins (HMDEKN buffer: 10 mM HEPES pH 7.4, 5 mM MgSO4, 1 mM DTT, 0.5 mM EDTA, 25 mM KCl, 0.05% NP-40), precipitated with GST-tagged anti-GFP Nb on glutathione–Sepharose 4B beads, 1 h at 4°C; red fluorescence on the washed beads observed under a microscope
[7] = target: EGFP-fused CCRK(K33R) (human) (UniProt Q8IZL9); test: as above
[8] = target: EGFP-fused CCRK(290–346) (human) (UniProt Q8IZL9); test: as above
[9] = target: EGFP-fused CCRK(1–330) (human) (UniProt Q8IZL9); test: as above

- binding [1]: binds
- binding [2]: binds
- binding [3]: binds
- binding [4]: no binding
- binding [5]: no binding
- binding [6]: binds
- binding [7]: binds
- binding [8]: binds
- binding [9]: no binding
B1: BROMI-mChe (protein, UniProt Q96NH3-4 1-1298)
chain: MAHFSSEDQAMLQAMLRRLFQSVKEKITGAPSLECAEEILLHLEETDENFHNYEFVKYLRQHIGNTLGSMIEEEMEKCTSDRNQGEECGYDTVVQQVTKRTQESKEYKEMMHYLKNIMIAVVESMINKFEEDETRNQERQKKIQKEKSHSYRTDNCSDSDSSLNQSYKFCQGKLQLILDQLDPGQPKEVRYEALQTLCSAPPSDVLNCENWTTLCEKLTVSLSDPDPVFSDRILKFCAQTFLLSPLHMTKEIYTSLAKYLESYFLSRENHIPTLSAGVDITNPNMTRLLKKVRLLNEYQKEAPSFWIRHPEKYMEEIVESTLSLLTVKHNQSHVVSQKILDPIYFFALVDTKAVWFKKWMHAHYSRTTVLRLLETKYKSLVTTAIQQCVQYFEMCKTRKADETLGHSKHCRNKQKTFYYLGQELQYIYFIHSLCLLGRLLIYKQGRKLFPIKLKNKKGLVSLIDLLVLFTQLIYYSPSCPKMTSAAHSENYSPASMVTEVLWILSDQKECAVECLYNNIVIETLLQPIHNLMKGNEASPNCSETALIHIAGILARIASVEEGLILLLYGANMNSSEESPTGAHIIAQFSKKLLDEDISIFSGSEMLPVVKGAFISVCRHIYSTCEGLQVLITYNLHESIAKAWKKTSLLSERIPTPVEGSDSVSSVSQESQNIMAWEDNLLDDLLHFAATPKGLLLLQRTGAINECVTFIFNRYAKKLQVSRHKKFGYGVLVTRVASTAAGGIALKKSGFINELITELWSNLEYGRDDVRVTHPRTTPVDPIDRSCQKSFLALVNLLSYPAIYELVRNQDLPNKTEYSLREVPTCVIDIIDRLIILNSEAKIRSLFNYEQSHIFGLRLLSVICCDLDTLLLLEAQYQVSEMLLNAQEENILEISESHRDFIIDGLSVERNHVLVRINLVGGPLERILPPRLLEKSDNPYPWPMFSSYPLPNCYLSDITRNAGIKQDNDLDKLLLCLKISDKQTEWIENCQRQFCKMMKAKPDIISGEALIELLEKFVLHLTESPSECYFPSVEYTATDANVKNESLSSVQQLGIKMTVRYGKFLSLLKDGAENDLTWVLKHCERFLKQQQTSIKSSLLCLQGNYAGHDWFVSSLFMIMLGDKEKTFQFLHQFSRLLTSAFLWLPRLHISSYLPNDTVESGIHPVYFCSTHYIEMLLKAELPLVFSAFHMSGFAPSQICLQWITQCFWNYLDWIEICHYIATCVFLGPDYQVYICIAVFKHLQQDILQHTQTQDLQVFLKEEALHGFRVSDYFEYMEILEQNYRTVLLRDMRNIRLQST
